# According to the supplement of paper PMC8728848:
# The other results are listed elsewhere or left out.
# B1: TAL6-6LysM (Trichoderma atroviride) (protein)
# chain: AASKLGVPQPAQRDQVNCQLYAVQPNDNCIDISSKNNITYAQLLSWNPSLSSTCSNLASLNSSSICVSNPKGTFSISSNTVGATDIATTTAPVPSPTLDQTTSRCAKYYQVSDGDDCSHLTAQFAITLKDFIFLNSEVWQNCTNLELGYYYCVEPVGYISTYPGYLPTATTKPFNQTSATSLPYDGDPWARFSSNSSVIPIANGTRVDCYSYVYVKNLTENLFADCWNMASMYEITREELVLWNPSLGNDGSSGSNLSGAEASQVASSIAIPTTAPSSITTNLYTYPCTVAANISYCVALVSSTGALPTNTAPPGPHASGEISNCTAWFAPEAYDTCKSILDIFEMSFANFYKMNPSVGPDCSGLAVGTNYCVSTYPNGEDPNDDWDGDDSIPSISPTGIITPTPTQSGMVSNCNKFYDVHSNDGCSAIASSQHVDLSSLYKWNPAIKTDCSGLQASVYVCIGILTTSMSTTSKLPTTTSKPSTTSKPPTGITTPTPTQSGMVKNCNKFYDVHSGDGCSAIASSQKVNLSSFYLWNPAVKTDCSGLQASVFVCIGTLTTSMSTTTSKLPTTTSKPSTTSKPPTGIITPTPTQNGMVKNCNKFYDVHSGDGCSAIASSQKVNLSSFYLWNPAVKTDCSGLQASVFVCVGTATTTTAAGITTPTPTQSGMVSGCNKFYDVHAGDGCSAIASSQKIALSSLYKWNPAVKTDCSGLQASVYICIGVGNAAAARVTGAAASFLEQKLISEEDLNSAVDHHHHHH
# Legend:
# Assay in all cases: glycan array binding signal (z-score within array); higher = stronger binding
# Details in all cases: glycan notation: IUPAC condensed, linker removed
# [1] = biological target: Neu5Ac(a2-3)Gal(b1-4)GlcNAc(b1-6)GalNAc
# How it was run: (§1)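 Negative Z-scores can be read as non-binding. The Z-score is calculated within each array and then averaged across arrays of one protein sequence at different concentrations or buffers and across linkers. Arrays, 3228 in all, were curated from the Consortium for Functional Glycomics database and kept only where the protein sequence was available.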
# [2] = biological target: Neu5Ac(a2-3)Gal(b1-4)GlcNAc(b1-6)[Gal(b1-3)]GalNAc
# How it was run: as §1
# [3] = biological target: Neu5Ac(a2-3)Gal(b1-4)GlcNAc(b1-6)[Neu5Ac(a2-3)Gal(b1-3)]GalNAc
# How it was run: as §1
# [4] = biological target: Neu5Ac(a2-3)Gal(b1-4)GlcNAc6S
# How it was run: as §1
# [5] = biological target: Neu5Ac(a2-3)Gal(b1-4)[Fuc(a1-3)]GlcNAc
# How it was run: as §1
# [6] = biological target: Neu5Ac(a2-3)Gal(b1-4)[Fuc(a1-3)]GlcNAc(b1-2)Man
# How it was run: as §1
# [7] = biological target: Neu5Ac(a2-3)Gal(b1-4)[Fuc(a1-3)]GlcNAc(b1-3)Gal
# How it was run: as §1
# [8] = biological target: Neu5Ac(a2-3)Gal(b1-4)[Fuc(a1-3)]GlcNAc(b1-3)Gal(b1-4)GlcNAc
# How it was run: as §1
# [9] = biological target: Neu5Ac(a2-3)Gal(b1-4)[Fuc(a1-3)]GlcNAc(b1-3)Gal(b1-4)[Fuc(a1-3)]GlcNAc(b1-3)Gal(b1-4)[Fuc(a1-3)]GlcNAc
# How it was run: as §1
# [10] = biological target: Neu5Ac(a2-3)Gal(b1-4)[Fuc(a1-3)]GlcNAc(b1-3)GalNAc
# How it was run: as §1
# [11] = biological target: Neu5Ac(a2-3)Gal(b1-4)[Fuc(a1-3)]GlcNAc(b1-6)[Gal(b1-3)]GalNAc
# How it was run: as §1
# [12] = biological target: Neu5Ac(a2-3)Gal(b1-4)[Fuc(a1-3)]GlcNAc(b1-6)[Neu5Ac(a2-3)Gal(b1-3)]GalNAc
# How it was run: as §1
# [13] = biological target: Neu5Ac(a2-3)Gal(b1-4)[Fuc(a1-3)]GlcNAc6S
# How it was run: as §1
# [14] = biological target: Neu5Ac(a2-3)Gal6S(b1-4)GlcNAc
# How it was run: as §1
# [15] = biological target: Neu5Ac(a2-3)Gal6S(b1-4)[Fuc(a1-3)]GlcNAc
# How it was run: as §1
# [16] = biological target: Neu5Ac(a2-3)GalNAc
# How it was run: as §1
# [17] = biological target: Neu5Ac(a2-3)GalNAc(b1-4)GlcNAc
# How it was run: as §1
# [18] = biological target: Neu5Ac(a2-3)[GalNAc(b1-4)]Gal(b1-4)Glc
# How it was run: as §1
# [19] = biological target: Neu5Ac(a2-3)[GalNAc(b1-4)]Gal(b1-4)GlcNAc
# How it was run: as §1
# [20] = biological target: Neu5Ac(a2-3)[GalNAc(b1-4)]Gal(b1-4)GlcNAc(b1-3)GalNAc
# How it was run: as §1
# [21] = biological target: Neu5Ac(a2-3)[Neu5Ac(a2-6)]GalNAc
# How it was run: as §1
# [22] = biological target: Neu5Ac(a2-6)Gal
# How it was run: as §1
# [23] = biological target: Neu5Ac(a2-6)Gal(b1-3)GlcNAc(b1-3)[Gal(b1-4)GlcNAc(b1-6)]Gal(b1-4)Glc
# How it was run: as §1
# [24] = biological target: Neu5Ac(a2-6)Gal(b1-4)Glc
# How it was run: as §1
# [25] = biological target: Neu5Ac(a2-6)Gal(b1-4)GlcNAc
# How it was run: as §1
# [26] = biological target: Neu5Ac(a2-6)Gal(b1-4)GlcNAc(b1-2)Man
# How it was run: as §1
# [27] = biological target: Neu5Ac(a2-6)Gal(b1-4)GlcNAc(b1-2)Man(a1-3)Man(b1-4)GlcNAc(b1-4)GlcNAc
# How it was run: as §1
# [28] = biological target: Neu5Ac(a2-6)Gal(b1-4)GlcNAc(b1-2)Man(a1-3)[Gal(b1-4)GlcNAc(b1-2)Man(a1-6)]Man(b1-4)GlcNAc(b1-4)GlcNAc
# How it was run: as §1
# [29] = biological target: Neu5Ac(a2-6)Gal(b1-4)GlcNAc(b1-2)Man(a1-3)[GlcNAc(b1-2)Man(a1-6)]Man(b1-4)GlcNAc(b1-4)GlcNAc
# How it was run: as §1
# [30] = biological target: Neu5Ac(a2-6)Gal(b1-4)GlcNAc(b1-2)Man(a1-3)[GlcNAc(b1-4)][Neu5Ac(a2-6)Gal(b1-4)GlcNAc(b1-2)Man(a1-6)]Man(b1-4)GlcNAc(b1-4)GlcNAc
# How it was run: as §1
# [31] = biological target: Neu5Ac(a2-6)Gal(b1-4)GlcNAc(b1-2)Man(a1-3)[Man(a1-6)]Man(b1-4)GlcNAc(b1-4)GlcNAc
# How it was run: as §1
# [32] = biological target: Neu5Ac(a2-6)Gal(b1-4)GlcNAc(b1-2)Man(a1-3)[Neu5Ac(a2-3)Gal(b1-4)GlcNAc(b1-2)Man(a1-6)]Man(b1-4)GlcNAc(b1-4)GlcNAc
# How it was run: as §1
# [33] = biological target: Neu5Ac(a2-6)Gal(b1-4)GlcNAc(b1-2)Man(a1-3)[Neu5Ac(a2-6)Gal(b1-4)GlcNAc(b1-2)Man(a1-6)]Man(b1-4)GlcNAc(b1-4)GlcNAc
# How it was run: as §1
# [34] = biological target: Neu5Ac(a2-6)Gal(b1-4)GlcNAc(b1-2)Man(a1-3)[Neu5Ac(a2-6)Gal(b1-4)GlcNAc(b1-2)Man(a1-6)]Man(b1-4)GlcNAc(b1-4)[Fuc(a1-6)]GlcNAc
# How it was run: as §1
# [35] = biological target: Neu5Ac(a2-6)Gal(b1-4)GlcNAc(b1-2)Man(a1-6)Man(b1-4)GlcNAc(b1-4)GlcNAc
# How it was run: as §1
# [36] = biological target: Neu5Ac(a2-6)Gal(b1-4)GlcNAc(b1-2)Man(a1-6)[Gal(b1-4)GlcNAc(b1-2)Man(a1-3)]Man(b1-4)GlcNAc(b1-4)GlcNAc
# How it was run: as §1
# [37] = biological target: Neu5Ac(a2-6)Gal(b1-4)GlcNAc(b1-2)Man(a1-6)[GlcNAc(b1-2)Man(a1-3)]Man(b1-4)GlcNAc(b1-4)GlcNAc
# How it was run: as §1
# [38] = biological target: Neu5Ac(a2-6)Gal(b1-4)GlcNAc(b1-2)Man(a1-6)[Man(a1-3)]Man(b1-4)GlcNAc(b1-4)GlcNAc
# How it was run: as §1
# [39] = biological target: Neu5Ac(a2-6)Gal(b1-4)GlcNAc(b1-2)[Neu5Ac(a2-6)Gal(b1-4)GlcNAc(b1-4)]Man(a1-3)[GlcNAc(b1-4)][Neu5Ac(a2-6)Gal(b1-4)GlcNAc(b1-2)[Neu5Ac(a2-6)Gal(b1-4)GlcNAc(b1-6)]Man(a1-6)]Man(b1-4)GlcNAc(b1-4)GlcNAc
# How it was run: as §1
# [40] = biological target: Neu5Ac(a2-6)Gal(b1-4)GlcNAc(b1-2)[Neu5Ac(a2-6)Gal(b1-4)GlcNAc(b1-4)]Man(a1-3)[GlcNAc(b1-4)][Neu5Ac(a2-6)Gal(b1-4)GlcNAc(b1-4)Man(a1-6)]Man(b1-4)GlcNAc(b1-4)GlcNAc
# How it was run: as §1
# [41] = biological target: Neu5Ac(a2-6)Gal(b1-4)GlcNAc(b1-2)[Neu5Ac(a2-6)Gal(b1-4)GlcNAc(b1-6)]Man(a1-6)[Neu5Ac(a2-6)Gal(b1-4)GlcNAc(b1-2)Man(a1-3)][GlcNAc(b1-4)]Man(b1-4)GlcNAc(b1-4)GlcNAc
# How it was run: as §1
# [42] = biological target: Neu5Ac(a2-6)Gal(b1-4)GlcNAc(b1-3)Gal(b1-3)GlcNAc
# How it was run: as §1
# [43] = biological target: Neu5Ac(a2-6)Gal(b1-4)GlcNAc(b1-3)Gal(b1-4)GlcNAc
# How it was run: as §1
# [44] = biological target: Neu5Ac(a2-6)Gal(b1-4)GlcNAc(b1-3)Gal(b1-4)GlcNAc(b1-2)Man(a1-3)[Neu5Ac(a2-6)Gal(b1-4)GlcNAc(b1-3)Gal(b1-4)GlcNAc(b1-2)Man(a1-6)]GalNAc
# How it was run: as §1
# [45] = biological target: Neu5Ac(a2-6)Gal(b1-4)GlcNAc(b1-3)Gal(b1-4)GlcNAc(b1-3)Gal(b1-4)GlcNAc
# How it was run: as §1
# [46] = biological target: Neu5Ac(a2-6)Gal(b1-4)GlcNAc(b1-3)Gal(b1-4)GlcNAc(b1-3)Gal(b1-4)GlcNAc(b1-2)Man(a1-3)[Neu5Ac(a2-6)Gal(b1-4)GlcNAc(b1-3)Gal(b1-4)GlcNAc(b1-3)Gal(b1-4)GlcNAc(b1-2)Man(a1-6)]GalNAc
# How it was run: as §1
binder,measurement,setting,value
B1,glycan array binding signal (z-score),[1],0.787
same,glycan array binding signal (z-score),[2],-1.45
same,glycan array binding signal (z-score),[3],-1.14
same,glycan array binding signal (z-score),[4],-0.46
same,glycan array binding signal (z-score),[5],-0.196
same,glycan array binding signal (z-score),[6],-0.794
same,glycan array binding signal (z-score),[7],0.169
same,glycan array binding signal (z-score),[8],-0.591
same,glycan array binding signal (z-score),[9],0.058
same,glycan array binding signal (z-score),[10],-0.077
same,glycan array binding signal (z-score),[11],0.958
same,glycan array binding signal (z-score),[12],-0.367
same,glycan array binding signal (z-score),[13],0.059
same,glycan array binding signal (z-score),[14],0.428
same,glycan array binding signal (z-score),[15],-1.04
same,glycan array binding signal (z-score),[16],0.267
same,glycan array binding signal (z-score),[17],-0.545
same,glycan array binding signal (z-score),[18],-1.28
same,glycan array binding signal (z-score),[19],-1.08
same,glycan array binding signal (z-score),[20],1.67
same,glycan array binding signal (z-score),[21],0.399
same,glycan array binding signal (z-score),[22],-0.907
same,glycan array binding signal (z-score),[23],-0.73
same,glycan array binding signal (z-score),[24],0.029
same,glycan array binding signal (z-score),[25],-0.077
same,glycan array binding signal (z-score),[26],-0.567
same,glycan array binding signal (z-score),[27],-0.142
same,glycan array binding signal (z-score),[28],0.695
same,glycan array binding signal (z-score),[29],0.742
same,glycan array binding signal (z-score),[30],0.064
same,glycan array binding signal (z-score),[31],-0.594
same,glycan array binding signal (z-score),[32],-0.013
same,glycan array binding signal (z-score),[33],0.076
same,glycan array binding signal (z-score),[34],-0.891
same,glycan array binding signal (z-score),[35],0.838
same,glycan array binding signal (z-score),[36],0.106
same,glycan array binding signal (z-score),[37],-0.01
same,glycan array binding signal (z-score),[38],-1.41
same,glycan array binding signal (z-score),[39],0.288
same,glycan array binding signal (z-score),[40],-0.829
same,glycan array binding signal (z-score),[41],0.005
same,glycan array binding signal (z-score),[42],-1.1
same,glycan array binding signal (z-score),[43],1.52
same,glycan array binding signal (z-score),[44],1.37
same,glycan array binding signal (z-score),[45],1.28
same,glycan array binding signal (z-score),[46],1.62

# A stretch taken from the entries so far, as a working copy:
binder,measurement,setting,value
B1,glycan array binding signal (z-score),[3],-1.14
same,glycan array binding signal (z-score),[4],-0.46
same,glycan array binding signal (z-score),[5],-0.196
